Laboratory results taken from the supplement of paper PMC12823440, “Inhibitors supercharge kinase turnover through native proteolytic circuits” (Nature, 2025).
Counter-ions that a name gives are not always drawn. The list shows a part of the results. The calls rarely recur for the same compound in another form.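 In K562 cells expressing nanoluciferase-fused kinases, luminescence was recorded at 4 h intervals between 2 and 18 h, normalized as percent of control with DMSO at 100% and a positive control at 0%. A significant (2 sigma) signal drop marks a time point as decreased. The authors' rule for a hit is not shown and takes in more than the number of time points.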

Amino acid sequences for entries named in this document (tags omitted). A change or cut given only in a name is not applied to a line headed by its entry.
UniProt Q8IWU2: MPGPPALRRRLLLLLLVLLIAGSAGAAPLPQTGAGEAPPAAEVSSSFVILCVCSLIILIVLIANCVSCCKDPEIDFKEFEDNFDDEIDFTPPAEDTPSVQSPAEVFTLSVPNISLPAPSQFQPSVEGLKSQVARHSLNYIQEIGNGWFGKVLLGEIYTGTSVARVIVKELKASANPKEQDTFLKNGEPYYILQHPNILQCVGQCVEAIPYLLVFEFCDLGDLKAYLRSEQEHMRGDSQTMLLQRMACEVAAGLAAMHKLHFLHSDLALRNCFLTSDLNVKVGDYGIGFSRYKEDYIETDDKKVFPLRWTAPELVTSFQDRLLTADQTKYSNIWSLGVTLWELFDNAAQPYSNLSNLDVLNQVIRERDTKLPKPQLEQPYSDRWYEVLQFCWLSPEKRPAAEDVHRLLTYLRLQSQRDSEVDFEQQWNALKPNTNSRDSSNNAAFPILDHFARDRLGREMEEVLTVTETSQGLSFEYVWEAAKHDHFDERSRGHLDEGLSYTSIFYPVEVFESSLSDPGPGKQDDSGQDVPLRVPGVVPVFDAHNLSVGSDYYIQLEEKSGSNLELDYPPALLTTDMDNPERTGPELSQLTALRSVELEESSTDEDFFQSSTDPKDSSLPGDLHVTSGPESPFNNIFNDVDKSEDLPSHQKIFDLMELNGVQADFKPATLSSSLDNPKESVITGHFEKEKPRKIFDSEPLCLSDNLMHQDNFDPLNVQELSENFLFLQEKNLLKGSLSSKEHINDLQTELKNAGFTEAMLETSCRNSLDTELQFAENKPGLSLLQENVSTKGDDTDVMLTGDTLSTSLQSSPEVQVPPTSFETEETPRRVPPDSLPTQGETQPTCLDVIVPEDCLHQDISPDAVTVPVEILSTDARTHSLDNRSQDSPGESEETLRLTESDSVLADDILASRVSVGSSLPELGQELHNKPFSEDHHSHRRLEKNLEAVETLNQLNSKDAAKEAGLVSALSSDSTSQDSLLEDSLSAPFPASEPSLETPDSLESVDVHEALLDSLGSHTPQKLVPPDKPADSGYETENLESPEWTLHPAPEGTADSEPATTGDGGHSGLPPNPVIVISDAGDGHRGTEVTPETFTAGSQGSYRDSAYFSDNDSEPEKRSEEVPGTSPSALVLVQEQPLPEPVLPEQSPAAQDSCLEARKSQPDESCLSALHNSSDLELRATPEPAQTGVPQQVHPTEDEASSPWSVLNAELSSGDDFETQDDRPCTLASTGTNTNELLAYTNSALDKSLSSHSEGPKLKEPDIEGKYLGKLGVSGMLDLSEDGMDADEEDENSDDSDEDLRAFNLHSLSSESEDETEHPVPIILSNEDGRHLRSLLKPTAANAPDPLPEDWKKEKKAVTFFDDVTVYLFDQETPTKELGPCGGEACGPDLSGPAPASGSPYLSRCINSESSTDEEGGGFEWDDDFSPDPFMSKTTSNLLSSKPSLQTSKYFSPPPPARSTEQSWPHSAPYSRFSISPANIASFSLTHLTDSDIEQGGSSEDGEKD

molecular target: LMTK2 (UniProt Q8IWU2); experiment: number of time points (of 5) at which kinase-Nluc abundance scored as decreased, DMSO-normalised (count); higher = more persistent destabilization; details: K562; 2-18 h

| SMILES | number of time points |
| --- | --- |
| FC(F)(c1ccc2ncccc2c1)c1nnc2ccc(-c3ccncc3)nn12 (10 µM) | 0 |
| COc1ccc(-c2ccc3c(N4CCOCC4)nc(N4C[C@@H](C)O[C@@H](C)C4)nc3n2)cc1CO (2.5 µM) | 0 |
| C=CC(=O)Nc1ccc(CN2C(=O)N(c3cc(OC)cc(OC)c3)Cc3cnc(Nc4ccc(N5CCN(C)CC5)cc4)nc32)cc1 (2.5 µM) | 0 |
| O=C1NC(=O)/C(=C\c2cccc(C(F)(F)F)c2)S1 (2.5 µM) | 0 |
| CN(C)C(=O)Cn1cc(-c2ccc(-c3cncc4ccccc34)cc2)cn1 (10 µM) | 0 |
| COc1ccccc1-c1cc(Nc2cccc(CS(N)(=O)=O)c2)ncn1 (10 µM) | 3 |
| C[C@@H]1COCCN1c1cc(C2([S@@](C)(=N)=O)CC2)nc(-c2ccnc3[nH]ccc23)n1 [(S)-Ceralasertib] (10 µM) | 0 |
| c1cc(-c2c[nH]c3nccc(N4CCC[C@@]5(CCCCN5)C4)c23)ncn1 (10 µM) | 0 |
| Cc1ccc2nc(NCCN)c3ncc(C)n3c2c1 (2.5 µM) | 0 |
| C=CC(=O)Nc1cccc(Nc2nc(Nc3ccc(NC4CN(CCF)C4)cc3OC)ncc2C(F)(F)F)c1 (2.5 µM) | 0 |
| COc1ncc(Cl)cc1S(=O)(=O)Nc1ccc(F)c(C#Cc2cnc(N)nc2)c1F (2.5 µM) | 0 |
| C=CC(=O)Nc1cccc(Nc2nc(Nc3ccc(N4CCN(C(C)=O)CC4)cc3OC)ncc2C(F)(F)F)c1 [Rociletinib hydrobromide] (10 µM) | 0 |
| C[C@@]1(c2ncncc2F)NC(=O)c2cc(-c3cn[nH]c3)ccc21 (10 µM) | 0 |
| Cc1[nH]c(/C=C2\C(=O)Nc3ccc(F)cc32)c(C)c1C(=O)N[C@H]1CCN(C(=O)N(C)C)C1 [Vorolanib] (10 µM) | 0 |
| NC(=O)c1ccc(-c2nc(-c3ccc4c(c3)OCCO4)c(-c3ccccn3)[nH]2)cc1 (10 µM) | 0 |
| Cc1ccc2cc(-c3c(C)ccc(C(=O)c4c(-c5ccccc5)n(C)n(-c5ccccc5)c4=O)c3N)ccc2n1 (2.5 µM) | 0 |

| SMILES | number of time points |
| --- | --- |
| OCCn1cc(-c2ccc3c(c2)CC/C3=N\O)c(-c2ccncc2)n1 (10 µM) | 0 |
| NCCNS(=O)(=O)c1cccc2c(Cl)cccc12 [A-3 (hydrochloride)] (10 µM) | 0 |
| COc1cccc(OC)c1C(=O)OCc1cc(O)ccc1O[C@@H]1O[C@H](CO)[C@@H](O)[C@H](O)[C@H]1O [Curculigoside] (10 µM) | 0 |
| CC#CC(=O)N1CC[C@@H](n2c(=O)n(-c3ccc(Oc4ccccc4)cc3)c3c(N)ncnc32)C1 [Tirabrutinib] (10 µM) | 0 |
| CC1=C(C(=O)O)N2C(=O)[C@@H](NC(=O)[C@H](N)C3=CCC=CC3)[C@H]2SC1 [Cephradine] (10 µM) | 0 |
| CC(C)(C)c1nc(-c2cccc(NS(=O)(=O)c3c(F)cccc3F)c2F)c(-c2ccnc(N)n2)s1 [Dabrafenib] (2.5 µM) | 0 |
| COc1cc2c(N3CCN(C(=O)Nc4ccc(OC(C)C)cc4)CC3)ncnc2cc1OCCCN1CCCCC1 [Tandutinib] (10 µM) | 0 |
| Nc1cc(C(F)(F)F)c(-c2cc(N3CCOCC3)nc(N3CCOCC3)n2)cn1 [Buparlisib (Hydrochloride)] (2.5 µM) | 0 |
| Cn1cc(-c2ccc3c(c2)CCN3C(=O)Cc2cccc(C(F)(F)F)c2)c2c(N)ncnc21 (2.5 µM) | 0 |
| O=C1NC(=O)/C(=C/c2ccc3nccnc3c2)S1 (10 µM) | 0 |
| Cn1ncc(Cl)c1-c1cc(C(=O)N[C@H](CN)Cc2ccc(F)c(F)c2)oc1Cl [Uprosertib] (10 µM) | 0 |
| COCCNc1nc2ccc(C#CC3(O)CCCCC3)cc2n1-c1ccnc(N)n1 (10 µM) | 0 |
| CC(=O)NC1CC(n2cnc(NC(=O)Cc3ccc4ccccc4c3)c2)C1 (configuration not stated) (10 µM) | 0 |
| COc1cc(Nc2ncc(F)c(Nc3ccc4c(n3)NC(=O)C(C)(C)O4)n2)cc(OC)c1OC (10 µM) | 0 |
| C=C(CC[C@@H](C(=O)O)[C@H]1[C@H](O)C[C@@]2(C)C3=C(CC[C@]12C)[C@@]1(C)CC[C@H](OC(C)=O)C(C)(C)[C@@H]1CC3)C(C)C [Pachymic acid] (10 µM) | 0 |
| O=C(NOCC(O)CO)c1cc(Br)c(F)c(F)c1Nc1ccc(I)cc1F (configuration not stated) (2.5 µM) | 0 |
